Numbering of substitutions follows the chain as printed. These are yes or no findings as the source states them, for the method shown. Binding calls can cover weak binding; strength is not graded here. For some of these results: Tags and fused reporters may be left off the sequences shown.

The target of assay [1] is T1, CfBRCC36 (C. floridanus) (UniProt E2AXC7).
T1 sequence: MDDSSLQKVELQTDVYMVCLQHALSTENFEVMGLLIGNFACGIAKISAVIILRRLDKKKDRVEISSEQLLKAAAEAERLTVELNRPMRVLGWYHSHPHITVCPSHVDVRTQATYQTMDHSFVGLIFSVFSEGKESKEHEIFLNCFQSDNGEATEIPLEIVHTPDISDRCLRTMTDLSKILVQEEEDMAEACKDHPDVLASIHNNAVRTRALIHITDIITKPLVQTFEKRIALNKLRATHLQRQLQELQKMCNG
The experiment in a line: SEC-MALS; complexes and subcomplexes purified from insect cells; size exclusion chromatography coupled to multi-angle light scattering (Figures S1B-E and S8E-G); both purified.

Assay [2] has as its target T1, CfBRCC36 (C. floridanus). The assay is described as follows: crystal structure; CfBRCC36–KIAA0157ΔC, seleno-methionine-SAD, two heterodimers in the asymmetric unit, 2.55 Å; both purified.
Assay [3] addresses T2, CfBRCC36 QSQ mutant (His94Gln + His96Gln) (C. floridanus) (UniProt E2AXC7).
T2 sequence: T1 sequence with H94Q, H96Q
The experiment in a line: crystal structure; CfBRCC36(QSQ: H94Q + H96Q)–KIAA0157ΔC, 2.75 Å; both purified.

Consider “CfKIAA0157ΔC (C. floridanus) (domain or fragment)”, for which the binding result in assay [1], in assay [2] and in assay [3] was “binds” throughout.

On to CfKIAA0157 (C. floridanus), for which the binding result in assay [1] is “binds”.

Source of the values: article PMC4579573.
